Measurements: publication PMC8429728, “TNK1 is a ubiquitin-binding and 14-3-3-regulated kinase that can be targeted to block tumor growth” (Nature Communications, 2021)

Target: T1, FLAG-TNK1 AAA (human) (UniProt Q13470)
T1 sequence: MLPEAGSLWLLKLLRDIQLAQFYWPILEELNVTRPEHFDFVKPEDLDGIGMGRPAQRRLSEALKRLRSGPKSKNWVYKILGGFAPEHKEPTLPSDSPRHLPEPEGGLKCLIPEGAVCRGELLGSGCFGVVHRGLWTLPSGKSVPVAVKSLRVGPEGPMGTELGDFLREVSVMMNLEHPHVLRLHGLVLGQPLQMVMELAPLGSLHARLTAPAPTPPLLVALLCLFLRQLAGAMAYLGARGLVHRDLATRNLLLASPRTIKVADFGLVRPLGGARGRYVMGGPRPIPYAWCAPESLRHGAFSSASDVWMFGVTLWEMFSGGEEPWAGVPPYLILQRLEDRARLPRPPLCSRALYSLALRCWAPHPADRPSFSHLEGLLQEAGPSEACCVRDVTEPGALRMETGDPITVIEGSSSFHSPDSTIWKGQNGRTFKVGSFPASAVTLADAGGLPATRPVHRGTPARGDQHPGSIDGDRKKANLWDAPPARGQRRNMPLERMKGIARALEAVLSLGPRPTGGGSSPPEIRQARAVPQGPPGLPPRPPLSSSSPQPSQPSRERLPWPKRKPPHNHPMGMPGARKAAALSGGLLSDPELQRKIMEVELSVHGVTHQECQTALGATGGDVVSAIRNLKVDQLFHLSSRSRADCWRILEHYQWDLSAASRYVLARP
Experiment: co-IP; FLAG-TNK1 (WT or mutants) precipitated on anti-DYKDDDDK resin from HEK-293T lysate (10 mM HEPES KOH pH 7.5, 150 mM KCl, 0.01% IGEPAL), 1 h 4 °C, washed with PBS; immunoblotted for 14-3-3 or ubiquitin; in Fig. 2c cells treated with 1 uM kinase inhibitors for 4 h

- binding: no binding
Substance: 14-3-3 (endogenous, isoform not told) (human (endogenous in HEK-293T or A549))

Results are given in words; binding and its absence hold for the method and conditions named. Binding seen in cells or lysates may run through a third protein. Tags and fused reporters may be left off the sequences shown.
